Measured values: publication PMC4409568 (Neuron, 2015)

By UniProt entry, the sequences of proteins in these tests, tags left out. Residues count along the entry.
UniProt Q63053, 207-278: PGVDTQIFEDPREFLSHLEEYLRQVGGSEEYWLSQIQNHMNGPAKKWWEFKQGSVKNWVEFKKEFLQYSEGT

How the values were obtained:
[1] = molecular target: T1, Arc(207-278) binding to TARPγ2 peptide (Rattus norvegicus, UniProt Q63053); details: FP competition; Figure 5E
[2] = molecular target: T1, Arc(207-278) binding to TARPγ2 peptide; experiment: biochemical

## CSc1ccc2c(c1)N(CCC1CCCCN1C)c1ccccc1S2 (centres unmarked) [Thioridazine]
[1]
  binding inhibited over 1 log [Thioridazine]: ~ 80%
[2]
  IC50: 194 µM
